Where “and” joins values, the source holds several entries; their conditions need not be identical. Equal entries are not always repeated. Inconclusive results, whose numbers are uncertain, are shown with a selection of clear calls. A potency beside an inconclusive call is a rough fit, not a confirmed value. Calls of active or inactive are those of the source. How the source made its calls: active means hit-call score of the fitted dose curve at least 0.9, where 1 is the maximum; inconclusive means response in the unintended direction; inactive means score below 0.9.
assay: TOX21_p53_BLA_p3_viability: Viability Assessment in the Tox21 HCT-116 p53 Agonism Beta-lactamase Assay, Phase 3 (AID 2283593);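 further: cells exposed to compound for 16 h before reading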
Summary of the method: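 HCT116 cells, 4000/well, dosed 5 h after plating by pin transfer (217-fold dilution from DMSO stock) and incubated 16 h at 37C, 5% CO2. Viability read as ATP luminescence with CellTiter-Glo after 30 min at room temperature.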

Compound | AC50 | outcome
CC(CN(C)C)CN1c2ccccc2S(=O)(=O)c2ccccc21 (stereo not given) | inconclusive: 23 µM | 
O=[N+]([O-])c1cc(Cl)c(Cl)c(Cl)c1Cl | inconclusive: 45.9 µM | 
O=S(=O)(O)CO | inconclusive: 0.196 µM | 
CCCCCCCCCCCCCCCC(=O)O[C@@H]1CC(C)=C(/C=C/C(C)=C/C=C/C(C)=C/C=C/C=C(C)/C=C/C=C(C)/C=C/C2=C(C)C[C@@H](OC(=O)CCCCCCCCCCCCCCC)CC2(C)C)C(C)(C)C1 | active: 36.2 µM | 
NCCN1CCNC1=O |  | inactive
CC(CNC(=O)c1cccnc1)NC(=O)c1cccnc1 (stereo not given) | inconclusive: 43.4 µM | 
OCCCCCCCl | inconclusive: 0.000239 µM | 
CN(C)CCCOc1nn(Cc2ccccc2)c2ccccc12 | inconclusive: 2.17 µM | 
Cc1ccc(C(=O)c2ccc(CC(=O)O)n2C)cc1 | inconclusive: 10.3 µM | 
NS(=O)(=O)c1ccccc1Cl | inconclusive: 46.1 µM | 
OCCOCC#CCOCCO |  | inactive
CC(C)(C)C(=O)OCOP(=O)(COCCn1cnc2c(N)ncnc21)OCOC(=O)C(C)(C)C | inconclusive: 9.7 µM | 
NC(=O)C1(N2CCCCC2)CCN(CCCC(=O)c2ccc(F)cc2)CC1 | active: 36.2 µM | 
CC(C)NNC(=O)c1ccncc1 |  | inactive
COc1ccccc1N1CCN(CCCNc2cc(=O)n(C)c(=O)n2C)CC1 | inconclusive: 23 µM and inconclusive: 700 nM | 
CC(CCc1ccc(O)cc1)NCC(O)c1ccc(O)cc1 (stereo not given) | inconclusive: 7.58 µM | 
CN1CCN2c3ncccc3Cc3ccccc3C2C1 (stereo not given) | inconclusive: 6.27 µM | 
FC(F)(F)c1ccccc1Cl | inconclusive: 47.1 µM | 
CCN1CCCC(OC(=O)C(c2ccccc2)c2ccccc2)C1 (stereo not given) | inconclusive: 3.12 µM | 
COc1ccc2[nH]c(S(=O)Cc3ncc(C)c(OC)c3C)nc2n1 (stereo not given) |  | inactive

3 structures already listed, sorted by SMILES length, smallest number first.
Compound | AC50 | outcome
OCCCCCCCl | inconclusive: 0.000239 µM | 
CCN1CCCC(OC(=O)C(c2ccccc2)c2ccccc2)C1 (stereo not given) | inconclusive: 3.12 µM | 
CC(C)(C)C(=O)OCOP(=O)(COCCn1cnc2c(N)ncnc21)OCOC(=O)C(C)(C)C | inconclusive: 9.7 µM | 

(list continues)

Compound | AC50 | outcome
CC(=O)OCC(C)C |  | inactive
CC(C)CCCC(=O)O | inconclusive: 46.1 µM | 
CN1CCN(C2Cc3ccccc3Sc3ccc(Cl)cc32)CC1 (stereo not given) | active: 34.5 µM | 
O=C1CCN(c2ccccc2)N1 | inconclusive: 46.2 µM | 
Oc1ccc(C2(c3ccc(O)cc3)CC3CC2C2CCCC32)cc1 (stereo not given) | inconclusive: 83.8 µM | 
CC(CCc1ccccc1)NCC(O)c1ccc(O)c(C(N)=O)c1 (stereo not given) | inconclusive: 46.1 µM and inconclusive: 23 µM | 
CN(C)CCN1C(=O)c2ccccc2N(C)c2ccccc21 | inconclusive: 11.3 µM | 
Brc1ccc(-c2ccccc2)cc1 | inconclusive: 46 µM | 
[Cl-].[Cl-].[NH-]CC[NH-].[Pt+4] | inconclusive: 3.21 µM | 
Cc1ccc(/C(=C\CN2CCCC2)c2ccccn2)cc1 | inconclusive: 3.58 µM and inconclusive: 2.29 µM | 
C1=C\CC/C=C\CC/1 | inconclusive: 47.9 µM | 
CCOC(=O)CCC(=O)O[C@H]1[C@H](O[C@@H]2[C@@H](C)[C@H](O[C@H]3C[C@@](C)(OC)[C@@H](O)[C@H](C)O3)[C@@H](C)C(=O)O[C@H](CC)[C@@](C)(O)[C@H](O)[C@@H](C)C(=O)[C@H](C)C[C@@]2(C)O)O[C@H](C)C[C@@H]1N(C)C | inconclusive: 23 µM | 
CCOc1ccc(S(=O)(=O)O)c2cccnc12 | inconclusive: 23 µM | 
Cc1ccc(Cl)cc1Cl |  | inactive
CN=C(NC#N)Nc1ccc(C2=NNC(=O)CC2C)cc1 (stereo not given) |  | inactive
CCCCC1=NC2(CCCC2)C(=O)N1Cc1ccc(-c2ccccc2-c2nn[nH]n2)cc1 | inconclusive: 4.2 µM | 
CC(=O)OCC(=O)[C@@]1(O)CCC2C3CCC4=CC(=O)CC[C@]4(C)C3C(O)C[C@@]21C (stereo not given in full) |  | inactive
O=S1(=O)c2cccc3cccc(c23)N1CCCN1CCN(c2ccc(F)cc2)CC1 |  | inactive
COC(=O)Nc1nc2ccc(C(=O)c3ccccc3)cc2[nH]1 | inconclusive: 2.04 µM | 
CC[C@@]1(O)C[C@@H]2CN(CCc3c([nH]c4ccccc34)[C@@](C(=O)OC)(c3cc4c(cc3OC)N(C)[C@H]3[C@@](O)(C(=O)OC)[C@H](OC(C)=O)[C@]5(CC)C=CCN6CC[C@]43[C@@H]65)C2)C1 | inconclusive: 47.3 nM and inconclusive: 77.1 nM | 

From PubChem BioAssay (EPA / NIEHS)
